No constants are given. Whether binding was seen depends on the method and setting. Some entries that bind do so weakly or less than the wild type.
How the values were obtained:
[1] = biological target: 重组人PCSK9蛋白 (recombinant human proprotein convertase subtilisin kexin type 9) (human) (UniProt Q8NBP7); assay: indirect ELISA and western blot
[2] = biological target: 重组人PCSK9蛋白 (recombinant human proprotein convertase subtilisin kexin type 9) (human) (UniProt Q8NBP7); assay: sandwich fluorescence immunochromatography
[3] = biological target: 重组人PCSK9蛋白 (recombinant human proprotein convertase subtilisin kexin type 9) (human) (UniProt Q8NBP7); assay: western blot, purified antibody 1:1000, HRP goat anti-mouse IgG

Chains of the proteins cited; added tags and fusions are not shown. Residues count along the entry.
UniProt Q8NBP7, residues 31-692: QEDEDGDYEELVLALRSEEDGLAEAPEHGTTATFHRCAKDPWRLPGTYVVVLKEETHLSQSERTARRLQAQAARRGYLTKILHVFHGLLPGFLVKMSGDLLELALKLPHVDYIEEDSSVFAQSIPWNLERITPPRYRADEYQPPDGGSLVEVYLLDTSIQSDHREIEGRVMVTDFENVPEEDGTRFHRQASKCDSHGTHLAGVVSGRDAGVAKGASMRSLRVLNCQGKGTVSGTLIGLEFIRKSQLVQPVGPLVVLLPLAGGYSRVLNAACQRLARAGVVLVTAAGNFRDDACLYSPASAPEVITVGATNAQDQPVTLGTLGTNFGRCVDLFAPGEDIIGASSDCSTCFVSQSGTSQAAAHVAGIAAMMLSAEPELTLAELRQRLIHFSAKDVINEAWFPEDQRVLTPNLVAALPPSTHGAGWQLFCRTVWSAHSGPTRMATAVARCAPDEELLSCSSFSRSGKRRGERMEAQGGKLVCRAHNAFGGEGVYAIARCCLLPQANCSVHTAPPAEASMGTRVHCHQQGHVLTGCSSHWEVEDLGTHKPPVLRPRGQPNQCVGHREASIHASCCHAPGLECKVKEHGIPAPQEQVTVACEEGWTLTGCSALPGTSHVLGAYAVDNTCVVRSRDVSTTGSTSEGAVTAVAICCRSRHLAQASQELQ

binding [1]: binds
binding [2]: binds
binding [3]: binds
B1: PCSK9-6C6 (antibody, V domains shown)
VH: EVLLVESGGGLVKPGGSLKLSCAASGFTFSAYAMSWVRQSPEKRLEWVSEISDGGYYTYYPDTVTGRFTISRDNAKNTLYLEMNSLRSEDTAMYYCARRYDGAFTYWGQGTLVTVSS
VL: DIVLTQSPGIMSASPGEKVTISCSASSSVSYMYWYQQKPGSSPKPWIYRTSNLASGVPARFSGSGSGTSYSLTISSMEAEDAATYYCQQYQSYPHTFGGGTKLEMK

— patent publication CN111171152A
